# Laboratory results reported in PubChem BioAssay AID1671190 (National Center for Advancing Translational Sciences (NCATS), 2021).
# Chains of the proteins cited; added tags and fusions are not shown.
# UniProt P18054, whole entry, looked up: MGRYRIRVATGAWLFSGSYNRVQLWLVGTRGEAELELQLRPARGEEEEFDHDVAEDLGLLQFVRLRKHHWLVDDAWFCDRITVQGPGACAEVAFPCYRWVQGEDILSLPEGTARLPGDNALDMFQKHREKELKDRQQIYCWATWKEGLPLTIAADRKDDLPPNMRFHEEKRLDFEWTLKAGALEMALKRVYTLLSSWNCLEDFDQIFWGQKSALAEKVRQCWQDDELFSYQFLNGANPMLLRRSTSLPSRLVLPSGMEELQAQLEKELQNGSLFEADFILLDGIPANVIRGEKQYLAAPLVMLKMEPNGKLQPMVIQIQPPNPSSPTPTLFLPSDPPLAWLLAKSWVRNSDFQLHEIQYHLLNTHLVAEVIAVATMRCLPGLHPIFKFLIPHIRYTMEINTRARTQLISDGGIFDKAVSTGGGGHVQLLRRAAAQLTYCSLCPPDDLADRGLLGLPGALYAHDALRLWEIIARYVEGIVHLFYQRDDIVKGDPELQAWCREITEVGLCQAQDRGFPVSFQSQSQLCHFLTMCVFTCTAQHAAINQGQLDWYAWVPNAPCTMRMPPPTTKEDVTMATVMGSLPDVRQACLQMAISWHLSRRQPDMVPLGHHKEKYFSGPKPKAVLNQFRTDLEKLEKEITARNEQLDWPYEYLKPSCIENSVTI
# Several values for one entry are separate records, joined by “and”; a condition that tells them apart may be missing. Equal values may be shown once. About 6,100 (1.1%) of roughly 580,000 compounds were called active. This list was built around the results that the source calls inconclusive (neither active nor inactive); the mix of calls is not that of the screen. Calls come from the whole dose curve; as a rule, active = well fitted inhibition curve with a large enough effect; inconclusive = small, poorly fitted or top-dose-only effect, or another doubt; inactive = no such curve, though single readings can be large or run the other way. Potencies of inconclusive entries are doubtful fits and often do not repeat.
# Molecular target: Polyunsaturated fatty acid lipoxygenase ALOX12 (Homo sapiens) (UniProt P18054)
# Assay: Primary qHTS assay for inhibitors of human arachidonate 12S-lipoxygenase (ALOX12): Round 2
# Details: purified 12hLO, xylenol orange hydroperoxide absorbance; activity change, negative = inhibition: at 108 µM (top of the series) unless noted
# Summary of the method: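 Purified human 12hLO at 150 nM in 25 mM Hepes, 0.01% Triton X-100, pH 7.0, preincubated 15 min at room temperature with compound. Reaction started with 40 uM arachidonic acid, 30 min at room temperature. Hydroperoxide measured by Fe-xylenol orange, 573/405 nm absorbance ratio.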
# % is set by controls: 0 for no effect and ±100 for the full control effect; potency is the fitted concentration of half-maximal effect.
Structure (SMILES),Potency,"activity change, negative = inhibition"
COc1ccc(Br)cc1CN1CCCC(C(=O)N2CCCCC2)C1 (centres undefined),"inconclusive: 3.55 µM [inhibitor, full curve] and inconclusive: 1.26 µM [inhibitor, full curve, poor fit]",
CC(O)(c1cccs1)C(C(=O)O)c1ccccc1 (centres undefined),"inconclusive: 44.7 µM [inhibitor, partial curve, poor fit]",
CCC1(c2ccc(F)cc2)NC(=O)N(CC(=O)N2CCN(S(=O)(=O)c3ccc(Cl)cc3)CC2)C1=O (centres undefined),,inactive: -8.13%
Cc1ccc2oc(-c3ccc(Cl)c(NC(=O)c4ccc([N+](=O)[O-])o4)c3)nc2c1,,inactive: 17.6%
CN(C)c1cccc(C(=O)N2CCC3(CC2)N=C(c2cccc(Br)c2)NO3)c1,,inactive: 1.79%
CSCCC1C(C#N)=C(N)Oc2n[nH]c(-c3cccs3)c21 (centres undefined),"inconclusive: 70.8 µM [inhibitor, partial curve, poor fit]",
COc1ccc2[nH]c(=O)c(CN(CC3CCCO3)C(=O)Nc3ccc(F)cc3)cc2c1 (centres undefined),,inactive: 474%
CC(C)Cn1c(COc2ccc3cc(Br)ccc3c2)n[nH]c1=S,"inconclusive: 39.8 µM [inhibitor, partial curve, poor fit]",
C=C(C)COc1ccc(-c2nc(N)ncc2Oc2ccc(OC)cc2)c(O)c1,"inconclusive: 31.6 µM [inhibitor, partial curve, poor fit]",
O=c1c(Cl)c(N2CCN(S(=O)(=O)c3ccc4ccccc4c3)CC2)cnn1-c1ccccc1,,inactive: 1.67%
CN(Cc1ccccc1)C(=O)COC(=O)C1CCN(S(=O)(=O)c2ccc3c(c2)OCCO3)CC1,"inconclusive: 141 µM [inhibitor, partial curve, poor fit]",
O=C(Cn1cc(COc2ccc(-n3cccc3)cc2)nn1)NS(=O)(=O)c1ccccc1C(F)(F)F,"inconclusive: 89.1 µM [inhibitor, single point]",
N#CCOc1ccccc1CNC[C@H]1O[C@@H](n2cnc(C(N)=O)n2)[C@H](O)[C@@H]1O,"inconclusive: 39.8 µM [inhibitor, partial curve, poor fit]",
C=CCNCc1cccc(OC)c1OCC,,inactive: -26.4%
CC1CCCCN1S(=O)(=O)c1ccc(C(=O)N(CCCN(C)C)c2nc3cc4c(cc3s2)OCO4)cc1 (centres undefined),,inactive: 0%
Cc1ccn2c(=O)nc(SCC(=O)NCc3ccc(F)cc3)nc2c1,"inconclusive: 89.1 µM [inhibitor, partial curve, poor fit]",
COC(=O)c1ccc(N2CCN(CCNC(=O)Nc3ccc(OC)cc3)CC2)cc1,"inconclusive: 70.8 µM [inhibitor, single point]",
CCCNC(=O)c1ccc(COc2ccc(Cl)cc2)o1,"inconclusive: 100 µM [inhibitor, single point]",
COc1ccccc1CCN1CNc2c(c(=O)[nH]c(=O)n2-c2ccc(Cl)cc2)C1,"inconclusive: 126 µM [inhibitor, single point]",
c1ccc(CSc2n[nH]c(-c3ccco3)n2)cc1,,inactive: 6.65%
CCOc1ccccc1CN1CCC2(Cc3ccccc3CNC2=O)C1 (centres undefined),"inconclusive: 22.4 µM [inhibitor, full curve]",
COc1cc2cc(C(=O)NCC(=O)Nc3nccs3)n(C)c2c(OC)c1OC,"inconclusive: 15.8 µM [inhibitor, single point]",
CCC(CC)NC(=O)COC(=O)Cc1nn(C)c(=O)c2ccccc12,"inconclusive: 50.1 µM [inhibitor, single point]",

Structure (SMILES),Potency,"activity change, negative = inhibition"
COc1ccc(/C=C2/N=C(SC)NC2=O)cc1OC,"inconclusive: 100 µM [inhibitor, partial curve, poor fit]",
Cc1noc(C)c1S(=O)(=O)N(C)C[C@@H]1OCc2cnnn2CCCC(=O)N([C@@H](C)CO)C[C@@H]1C,"inconclusive: 141 µM [inhibitor, single point]",
Cc1cc(S(=O)(=O)c2ccc([N+](=O)[O-])cn2)ccc1Br,,inactive: 124%
COc1ccc(-c2c(NC(=O)c3ccc([N+](=O)[O-])cc3)oc3ccc(Cl)cc3c2=O)cc1OC,"inconclusive: 112 µM [inhibitor, single point]",
CCCN(CC(=O)Nc1ccccc1C(=O)Nc1cccc(C)c1)Cc1nnc(-c2ccco2)o1,,inactive: 22%
Cc1ccccc1OCCCn1c(CCNC(=O)C2CCCCC2)nc2ccccc21,"inconclusive: 112 µM [inhibitor, partial curve, poor fit]",
Cc1nc2nc(C)c(NS(=O)(=O)c3ccc(F)cc3)c(=O)n2[nH]1,,inactive: -20.9%
Cc1ccc(S(=O)(=O)N2CCCC(c3nc(-c4ccc(C)o4)no3)C2)cc1 (centres undefined),"inconclusive: 39.8 µM [inhibitor, partial curve]",
O=C(O)CCNC(=O)c1cc(C2CC2)nc2ccccc12,"inconclusive: 112 µM [inhibitor, single point]",
Cc1ccc(S(=O)(=O)N2CCC(C(=O)NCCC3=CCCCC3)CC2)c(C)c1,"inconclusive: 20 µM [inhibitor, partial curve, poor fit]",
COc1ccc(NC(=O)CN(C)C(=O)c2ccc(-c3ccccc3Cl)o2)cc1,,inactive: -23.4%
O=C1c2c(nc(COc3ccccc3)n2Cc2ccccc2)NCCN1Cc1ccccc1F,,inactive: 6.03%
Cc1cc(F)ccc1S(=O)(=O)Nc1ccc(N2CCCC2)c(F)c1,active: 3.98 µM,
CC(=O)c1c(C)nc2ccc(Cl)cc2c1-c1ccccc1,,inactive: -28%
O=C(O)Cn1nc(-c2ccccc2)cc1-c1ccccc1,,inactive: 7.52%
C=CCc1cc(Cl)ccc1OCCCNC(C)C,"inconclusive: 44.7 µM [inhibitor, partial curve, poor fit]",
COc1ccc(S(=O)(=O)N2CCN(CC(=O)Nc3cc(Cl)ccc3Cl)CC2)cc1,,inactive: 39%
Cc1ccc(Nc2nc3ccccc3nc2NS(=O)(=O)c2cccs2)cc1Cl,,inactive: -2.25%
O=[N+]([O-])c1ccc(Cl)c(S(=O)(=O)NC2=NCCC2)c1,,inactive: -2.42%
COc1ccccc1CNc1nc(NCCOc2ccccc2)c2sccc2n1,"inconclusive: 12.6 µM [inhibitor, partial curve, poor fit]",
CC(=O)c1ccc(NC(=O)CSc2nc(=O)[nH]nc2C)cc1,,inactive: 37.4%
C=CC[C@H](CC(=O)N(CCO)Cc1ccccc1)C(=O)N[C@@H](COC(=O)[C@@H](CC=C)Cc1ccc(F)cc1)Cc1c[nH]c2ccccc12,"inconclusive: 35.5 µM [inhibitor, partial curve, poor fit]",
CC(C)[C@@H]1Cc2[nH][nH]c(=O)c2[C@H](CCc2ccccc2)O1,,inactive: -20.4%

Structure (SMILES),Potency,"activity change, negative = inhibition"
O=c1c(-c2cc(F)cc(F)c2)nc2cnc(Nc3ccccc3)nc2n1C[C@H]1CCCO1,"inconclusive: 112 µM [inhibitor, single point]",
O=C(c1ccc2c(=O)n(Cc3ccccc3)c(=S)[nH]c2c1)N1CCOCC1,,inactive: 1.42%
COc1ccc(NC(=O)Cn2nc(SC)c(S(=O)(=O)c3ccc(C)cc3)c2N)cc1OC,"inconclusive: 63.1 µM [inhibitor, partial curve, poor fit]",
CC(C(=O)N1CCCCC1)N1CCN(S(=O)(=O)c2ccc(Cl)cc2)CC1 (centres undefined),active: 1 µM,
CC1CCN(S(=O)(=O)c2ccc3c(ccn3CCC(=O)NCCCN3CCOCC3)c2)CC1,,inactive: 0.309%
CCCc1nc2ccc(C)cn2c1Cc1cccc(Cl)c1,"inconclusive: 39.8 µM [inhibitor, partial curve, poor fit]",
CN(CC(=O)Nc1cccc(F)c1)CC(=O)N(C)C1(C#N)CCCCC1,,inactive: -26.1%
CC(C)CC(=O)Nc1cccc(C(=O)Nc2cccc(C(=O)O)c2)c1,,inactive: -3.84%
Cc1ccccc1N1Cc2c(NCC3CCCCCC3)ncnc2N(C)CC1=O,"inconclusive: 89.1 µM [inhibitor, single point]",
Cc1noc(C)c1S(=O)(=O)N1CCC(N(C(=O)C2CC2)C2CCOCC2)CC1,,inactive: -4.3%
COc1ccc(OC)c(N(C(=O)c2ccco2)C(C(=O)NC2CCCC2)c2cc(OC)c(OC)c(OC)c2)c1 (centres undefined),"inconclusive: 100 µM [inhibitor, partial curve, poor fit]",
CCOC(=O)C1C(C(=O)OC)=C(c2ccc(F)cc2)c2ccccc2N1S(=O)(=O)C(F)(F)F (centres undefined),,inactive: -28.8%
Cc1cc2cc(C(c3nnnn3C(C)(C)C)N(Cc3ccco3)CC3CCCO3)c(=O)[nH]c2cc1C (centres undefined),,inactive: -8.86%
CCN1CCN(CCOc2ccccc2OCc2ccccc2)CC1,"inconclusive: 6.31 µM [inhibitor, full curve, poor fit]",
FC(F)(F)c1ccc(Cl)c(NC(=S)N/N=C/c2ccccc2C(F)(F)F)c1,,inactive: 19.4%
O=C(O)c1ccc2oc(=O)n(Cc3ccccc3)c2c1,"inconclusive: 100 µM [inhibitor, partial curve, poor fit]",
CCOC(=O)CC(NS(=O)(=O)c1ccc2[nH]cc(C(=O)O)c(=O)c2c1)c1ccc(OCC)c(OC)c1 (centres undefined),,inactive: -14.3%
Cc1cccc(Nc2nc(C(=O)N3CCC(C)CC3)cs2)c1,"inconclusive: 50.1 µM [inhibitor, partial curve, poor fit]",
Cc1nc(Nc2ccccc2C(F)(F)F)sc1C(=O)N(C)C,"inactive and inconclusive: 35.5 µM [inhibitor, single point]",
Cc1ccc(C(=O)CCC(=O)NN2C(=O)NC3(CCCCC3)C2=O)cc1,"inconclusive: 89.1 µM [inhibitor, partial curve, poor fit]",
Cc1nc2cc(NS(=O)(=O)c3cc(Cl)ccc3Cl)ccc2o1,"inconclusive: 141 µM [inhibitor, single point]",
CC(=O)N(C)Cc1ccc(C(=O)CCl)cc1,,inactive: -21%
CCC(=O)N1CCc2cc(Br)cc(S(=O)(=O)CCC(=O)N(C)c3cccc(C)c3)c21,,inactive: -29.6%

# Arranged by SMILES length (smallest number first): some entries from above
Structure (SMILES),Potency,"activity change, negative = inhibition"
CC(=O)N(C)Cc1ccc(C(=O)CCl)cc1,,inactive: -21%
CCCc1nc2ccc(C)cn2c1Cc1cccc(Cl)c1,"inconclusive: 39.8 µM [inhibitor, partial curve, poor fit]",
Cc1ccc(C(=O)CCC(=O)NN2C(=O)NC3(CCCCC3)C2=O)cc1,"inconclusive: 89.1 µM [inhibitor, partial curve, poor fit]",
CC(C(=O)N1CCCCC1)N1CCN(S(=O)(=O)c2ccc(Cl)cc2)CC1 (centres undefined),active: 1 µM,
FC(F)(F)c1ccc(Cl)c(NC(=S)N/N=C/c2ccccc2C(F)(F)F)c1,,inactive: 19.4%
CCC(=O)N1CCc2cc(Br)cc(S(=O)(=O)CCC(=O)N(C)c3cccc(C)c3)c21,,inactive: -29.6%
